{
  "source": "PubChem BioAssay AID540256",
  "about": "(National Center for Advancing Translational Sciences (NCATS), 2011)",
  "note": "Where “and” joins values, the source holds several entries; their conditions need not be identical. Equal values may be shown once. Out of some 300,000 compounds screened, about 3,700 (1.2%) were called active. Inconclusive means that the source gave no clear call. Such entries were picked first, then a sample of the others. The call rests on the fitted dose curve; tested in HEK293 cells. Potencies beside an inconclusive call are fits to weak or partial responses and may not hold up. On the % scale 0 is the no-effect control and ±100 the full control effect; potency means the concentration at half of the fitted maximal effect.",
  "data": [
    {"assay": "qHTS for Inhibitors of binding or entry into cells for Lassa Virus; further: nearly all actives have a fitted effect of over 50% in size", "conditions": "Lassa virus pseudotype entry inhibition, cell reporter; activity change, negative = inhibition: at 37.9 µM (top of the series) unless noted", "values": [
      {"smiles": "CCCCCCCOc1ccc(C(=O)Nc2cccnc2)cc1", "Potency": "inconclusive: 35.5 µM [inhibitor, single point]"},
      {"smiles": "CCc1ccc(-c2ccc(C(=O)C(F)(F)F)[nH]2)cc1", "Potency": "inconclusive: 14.6 µM [inhibitor, single point]"},
      {"smiles": "C=CCSC1=C(C#N)C(c2ccccc2Cl)CC(=O)N1", "note": "(configuration not stated)", "Potency": "inconclusive: 3.26 µM [activator, single point]"},
      {"smiles": "CCc1nn(C(C)C(=O)NCc2ccc(Cl)cc2)c(=O)c2cc3occc3n12", "note": "(configuration not stated)", "Potency": "inconclusive: 11.2 µM [inhibitor, partial curve, poor fit]"},
      {"smiles": "Cn1c(=O)c2c(nc(NCC3CCCO3)n2Cc2cccc(Br)c2)n(C)c1=O", "note": "(configuration not stated)", "Potency": "inconclusive: 0.651 µM [inhibitor, single point]"},
      {"smiles": "O=C(CNS(=O)(=O)c1cccs1)Nc1ccc2c(c1)OCCO2", "activity change, negative = inhibition": "inactive: 16.4%"},
      {"smiles": "CS(=O)(=O)N(CC(=O)N1CCCCC1)Cc1ccc(Cl)cc1", "Potency": "inconclusive: 2 µM [inhibitor, partial curve, poor fit]"},
      {"smiles": "COC(=O)COc1ccc(NC(=O)C2CCCO2)cc1", "note": "(configuration not stated)", "activity change, negative = inhibition": "inactive: 9%"},
      {"smiles": "COc1ccc(S(=O)(=O)N2CCCCCC2)cc1N(C)S(=O)(=O)c1ccc(C)cc1", "Potency": "inconclusive: 35.5 µM [inhibitor, single point]"},
      {"smiles": "Cc1ccc(NC(=O)O/N=C/c2cccc([N+](=O)[O-])c2)cc1", "Potency": "inconclusive: 3.16 µM [inhibitor, partial curve, poor fit]"},
      {"smiles": "CCOc1ccc(NC2=NCC(=O)N2Cc2cccs2)cc1", "Potency": "inconclusive: 35.5 µM [inhibitor, partial curve, poor fit]"},
      {"smiles": "COc1ccc(O)c(-c2cc(C(F)(F)C(F)F)nc(-c3ccccc3)n2)c1", "activity change, negative = inhibition": "inactive: -17.6%"},
      {"smiles": "CC(C)(C)C1=Nn2c(nnc2-c2n[nH]c3c2CCC3)SC1", "Potency": "inconclusive: 7.3 µM [inhibitor, partial curve, poor fit]"},
      {"smiles": "Cc1ccc(NC(=O)Cc2ccc(Cl)c(Cl)c2)cc1S(=O)(=O)N(C)C", "Potency": "active: 12.6 µM"},
      {"smiles": "COc1ccccc1OCCNC(=O)c1cccc(S(=O)(=O)N2CC(C)OC(C)C2)c1", "note": "(configuration not stated)", "activity change, negative = inhibition": "inactive: -41.3%"},
      {"smiles": "CC(C)(C)c1ccc(OCCC(=O)Nc2ccc(N3CCOCC3)cc2N2CCOCC2)cc1", "Potency": "inconclusive: 10 µM [inhibitor, partial curve, poor fit]"},
      {"smiles": "Cc1ccc(NC(=O)CCn2cccn2)cc1Cl", "Potency": "inconclusive: 3.55 µM [inhibitor, full curve, poor fit]"},
      {"smiles": "CC(C)CN1C(=O)c2ccc(C(=O)Nc3nccs3)cc2C1=O", "Potency": "inconclusive: 35.5 µM [activator, single point]"},
      {"smiles": "O=C(COc1cccc2c1CCN(Cc1ccccc1)C2=O)N1CCCCC1", "activity change, negative = inhibition": "inactive: -23.6%"},
      {"smiles": "O=C(NCc1ccc(Cl)cc1)c1cccc(NC(=O)c2ccccc2)c1", "Potency": "inconclusive: 25.1 µM [inhibitor, single point]"},
      {"smiles": "COc1cccc(NC(=O)COC(=O)Cc2ccccc2[N+](=O)[O-])c1", "Potency": "inconclusive: 5.01 µM [inhibitor, partial curve, poor fit]"},
      {"smiles": "CN1CCN(c2nc(N3CCN(CCO)CC3)nc3ccccc23)CC1", "Potency": "inconclusive: 35.5 µM [inhibitor, single point]"},
      {"smiles": "O=C(/C=C/Nc1ccc(Oc2ccccc2)cc1)c1ccco1", "Potency": "inconclusive: 12.6 µM [inhibitor, single point]"},
      {"smiles": "NC1C2CN(c3nc4c(cc3F)c(=O)c(C(=O)O)cn4-c3ccc(F)cc3F)CC12", "note": "(configuration not stated)", "activity change, negative = inhibition": "inactive: -0.489%"},
      {"smiles": "CN(C(=O)c1cc(-c2ccccc2)on1)C1CCCCC1", "Potency": "inconclusive: 35.5 µM [inhibitor, single point]"},
      {"smiles": "COc1ccc(CNC(=O)c2cc3cc(C)ccc3n2C)cc1", "Potency": "inconclusive: 0.891 µM [inhibitor, full curve, poor fit]"},
      {"smiles": "CC(=O)NCCNC(=O)CCCc1nnc2n(C)c(=O)c3sccc3n12", "Potency": "inconclusive: 4.47 µM [inhibitor, single point]"},
      {"smiles": "COc1c(OC(C)=O)ccc(/C=C/c2ccc3ccccc3n2)c1[N+](=O)[O-]", "Potency": "inconclusive: 2.91 µM [activator, single point]"},
      {"smiles": "CC(C)CCC1(CCNC(C)c2cccs2)CCOC(C)(C)C1", "note": "(configuration not stated)", "Potency": "inconclusive: 12.6 µM [inhibitor, single point]"},
      {"smiles": "COC(=O)C1(C)C2CC(C)C(c3ccccc32)N1C(=O)C(F)(F)F", "note": "(configuration not stated)", "Potency": "inconclusive: 0.0013 µM [inhibitor, full curve, poor fit]"},
      {"smiles": "O=C(Nc1ccncc1)c1ccc2c(c1)C(=O)N(C1CCCCC1)C2=O", "activity change, negative = inhibition": "inactive: -25.5%"},
      {"smiles": "CC(OC(=O)Cc1n[nH]c(=O)c2ccccc12)C(=O)Nc1ccc(F)cc1Cl", "note": "(configuration not stated)", "Potency": "inconclusive: 3.55 µM [inhibitor, single point]"},
      {"smiles": "CN(C)S(=O)(=O)c1cccc(NC(=O)COC(=O)/C=C/c2cccs2)c1", "activity change, negative = inhibition": "inactive: -1.32%"},
      {"smiles": "O=C(NCCc1ccncc1)c1ccc2nc(Cc3cccc(Cl)c3)oc2c1", "activity change, negative = inhibition": "inactive: 5.91%"},
      {"smiles": "Cc1ccccc1N1C(=O)CC1(C#N)c1ccc(OCc2ccccc2)cc1", "note": "(configuration not stated)", "Potency": "active: 10 µM"},
      {"smiles": "O=[N+]([O-])c1ccc(S(=O)(=O)NCC(c2cccnc2)N2CCc3ccccc3C2)cc1", "note": "(configuration not stated)", "Potency": "inconclusive: 1.26 µM [inhibitor, single point]"},
      {"smiles": "O=C(Nc1cc(S(=O)(=O)N2CCCCC2)ccc1O)c1ccccc1NS(=O)(=O)c1ccc(F)cc1", "Potency": "inactive and inconclusive: 12.6 µM [inhibitor, single point]"},
      {"smiles": "COCc1cc(CN2CCCC2)c(O)c2ncccc12", "Potency": "inconclusive: 14.6 µM [inhibitor, partial curve, poor fit]"},
      {"smiles": "Cc1onc(-c2ccccc2)c1C(=O)N1CCC(CO)(Cc2ccccc2)CC1", "activity change, negative = inhibition": "inactive: -29.7% [at 46.1 µM]"},
      {"smiles": "O=C(COC(=O)/C=C/c1ccccc1[N+](=O)[O-])Nc1ccc(OC(F)F)cc1", "Potency": "inconclusive: 18.4 µM [activator, partial curve, poor fit]"},
      {"smiles": "C=CCn1c(=NC(=O)c2ccc(S(=O)(=O)N3CCc4ccccc4C3)cc2)sc2cc(S(N)(=O)=O)ccc21", "Potency": "inconclusive: 28.2 µM [inhibitor, single point]"},
      {"smiles": "CCOC(=O)N1CCN(c2nc(-c3cccs3)cc(C(F)(F)F)n2)CC1", "Potency": "inconclusive: 6.51 µM [activator, single point]"}
    ]}
  ]
}
